# Measured values taken from PubChem BioAssay AID1347076 (National Center for Advancing Translational Sciences (NCATS), 2019).
# Several values for one entry are separate records, joined by “and”; a condition that tells them apart may be missing. Equal values may be shown once. In all, about 400,000 compounds went through this assay and about 13,000 (3.2%) were called active. Inconclusive means that the source gave no clear call. Such entries were picked first, then a sample of the others. Calls come from the whole dose curve; as a rule, active = well fitted cell-killing curve with a large enough effect; inconclusive = small, poorly fitted or top-dose-only effect, or effect the other way; inactive = flat fitted curve, though single readings scatter. A potency beside an inconclusive call is a rough fit, not a confirmed value.
# Assay: qHTS assay for MDR1-selective chemotherapeutics: Primary screen using the drug-selected MDR subline cells KB-V1; note: nearly all actives have a fitted effect of over 60% in size
# Conditions: KB-V1 MDR cells viability, CellTiter-Glo, 72 h; activity change, negative = cytotoxicity: at 46.1 µM (top of the series)
# Procedure, shortened: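 Cytotoxicity via CellTiter-Glo luminescence after 72 h compound exposure at 37 degrees C. Cells: drug-selected KB-V1 line, DMEM phenol-red free plus 10% FBS. Compounds tested at multiple concentrations; normalized data fitted to concentration-effect curves.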
# % is set by controls: 0 for no effect and ±100 for the full control effect; potency is the fitted concentration of half-maximal effect.
Compound,"activity change, negative = cytotoxicity",Potency
COC(=O)C1=C(c2ccccc2OCc2ccccc2)C[C@@H]2CC[C@H]1N2C(=O)NCc1ccc([N+](=O)[O-])cc1,inactive: -4.78%,
Cc1ccccc1OCC(=O)N1CCN(CCc2ccccn2)CC1,inactive: -15.4%,
C[C@]12CC[C@@H](O)CC1=CCC1C2CC[C@]2(C)C(=O)[C@H](F)CC12 (some centres not stated),inactive: -16.9%,
CCCn1ncc(CN2CCCC(C(=O)c3cccc(OC)c3)C2)c1C (configuration not stated),inactive: -4.83%,
C[C@H]1CC[C@@H]2[C@@H](C)[C@H]3[C@H](C[C@H]4[C@@H]5CC=C6C[C@@H](O[C@@H]7O[C@H](CO)[C@H](O)[C@H](O[C@@H]8O[C@H](CO)[C@@H](O)[C@H](O)[C@H]8O)[C@H]7O[C@@H]7O[C@@H](C)[C@H](O)[C@@H](O)[C@H]7O)CC[C@]6(C)[C@H]5CC[C@]34C)N2C1,,"inconclusive: 23.1 µM [cytotoxic, partial curve, poor fit]"
c1ccc(CNCCc2c[nH]c3ccccc23)cc1,,"inconclusive: 18.4 µM [rising, single point]"
COc1ccc(NC(=O)CCc2nc(C3=CCN(Cc4cccc(Cl)c4)CC3)no2)c(OC)c1,inactive: -16%,
C[n+]1c2ccccc2nc2ccc(NCCO)cc21,,"inconclusive: 16.4 µM [cytotoxic, partial curve, poor fit]"
Cc1cc(OCC(=O)N2CCC(C(=O)O)(c3ccccc3)CC2)c2c(C)c(C)c(=O)oc2c1,inactive: 19.2%,
C/C(=C\c1ccc(N(C)C)cc1)[N+](=O)[O-],,"inconclusive: 18.4 µM [cytotoxic, partial curve]"
O=C1NC(=O)C(=Cc2cn(CCOc3ccc4c(c3)OCO4)c3ccccc23)C(=O)N1,,"inconclusive: 29.1 µM [cytotoxic, single point]"
COc1cc(/C=C/c2nc3ccccc3c(=O)n2-c2ccccc2O)ccc1O,,"inconclusive: 29.1 µM [cytotoxic, single point]"
O=C1NCN(c2ccccc2)C12CCN(C(CCc1ccccc1)c1nnnn1C1CCCCC1)CC2 (configuration not stated),,"inconclusive: 20.6 µM [cytotoxic, single point]"
Fc1ccc(C2N3CCCN23)cc1 (configuration not stated),inactive: 11.6%,
CC(C)(C)c1ccc(O)c(CN2CCN(c3ccccc3)CC2)c1,,"inconclusive: 3.26 µM [cytotoxic, partial curve, poor fit]"
COc1ccc(N2C(=O)NC(=O)/C(=C/c3ccc([N+](=O)[O-])s3)C2=O)cc1,inactive: 14.6%,
Cc1cc(/C=C2\C(=O)NC(=O)N(c3ccc(Br)cc3)C2=O)c(C)n1C,,"inconclusive: 25.9 µM [rising, partial curve]"
Cc1cc(OCCCC(=O)NCc2cccs2)ccc1Cl,inactive: -19.3%,
COc1ccc(C(c2nnnn2Cc2ccccc2)N2CCC(n3c(=O)[nH]c4ccccc43)CC2)cc1 (configuration not stated),,"inconclusive: 29.1 µM [cytotoxic, single point]"
COc1ccccc1N1CCN(CCc2c[nH]c3cc4c(cc23)OCO4)CC1,,active: 18.4 µM
CNC(=O)O/N=C/C(C)(C)S(C)=O (configuration not stated),inactive: 1.37%,
CN1Cc2cnnn2-c2ccccc2C1C#N (configuration not stated),inactive: -28.2%,
CCOC(=O)c1c(-c2ccccc2)oc2ccc(OC(=O)N(C)C)cc12,,active: 16.4 µM
CC(=O)c1cccc(NC2=NCC(C)S2)c1 (configuration not stated),,"inconclusive: 3.66 µM [rising, partial curve, poor fit]"

# 2 of the compounds above, with bars between the fields.
Compound | activity change, negative = cytotoxicity | Potency
C[C@]12CC[C@@H](O)CC1=CCC1C2CC[C@]2(C)C(=O)[C@H](F)CC12 (some centres not stated) | inactive: -16.9% | 
COc1cc(/C=C/c2nc3ccccc3c(=O)n2-c2ccccc2O)ccc1O |  | inconclusive: 29.1 µM [cytotoxic, single point]

# Remaining list, next part:

Compound,"activity change, negative = cytotoxicity",Potency
O=P(Oc1ccccc1)(Oc1ccccc1)C(Nc1ccccc1)c1ccccc1 (configuration not stated),,active: 13 µM
CN1CC(C(=O)c2ccccc2)C(C(=O)c2ccccc2)C1 (configuration not stated),,"inconclusive: 8.2 µM [cytotoxic, partial curve, poor fit]"
CC1CC(C)CC(C)C(O)C(C#N)=CC=CCC(C2CCCC2C(=O)O)OC(=O)CC(O)C(C)C1 (configuration not stated),,active: 6.51 µM
COC(=O)C1=C(c2c(C)noc2C)C[C@@H]2CC[C@H]1N2C(=O)NC1Cc2ccccc2C1,inactive: 8.34%,
COc1ccccc1CN1CCN(C(=O)Cc2ccccc2)CC1,,"inconclusive: 18.4 µM [cytotoxic, partial curve, poor fit]"
Cc1cccc(NC(=O)OC2CN3CCC2CC3)c1 (configuration not stated),inactive: -1.06%,
Cc1cccc(NC(=O)N2C[C@H]3C[C@@H](C2)c2cccc(=O)n2C3)c1,,"inconclusive: 5.17 µM [cytotoxic, full curve]"
Oc1cc(Cl)ccc1Oc1ccc(Cl)cc1Cl,inactive: -1.36%,
CCCCCCC(=O)N/N=C/c1c(O)n(CCCC)c(=S)[nH]c1=O,inactive: -18.2%,
Clc1ccc2c(c1)C(c1ccccc1Cl)=NCc1nnc(Br)n1-2,,"inconclusive: 32.6 µM [cytotoxic, single point]"
COc1cc(C=C2C(=O)NC(=O)NC2=O)ccc1OCc1ccc([N+](=O)[O-])cc1,inactive: 4.56%,
O=C(Nc1ccc(Cl)cc1C(=O)c1ccccc1)c1ccc(Br)o1,,"inconclusive: 16.4 µM [cytotoxic, single point]"
COc1ccc2cc(C(=O)C3CCCN(C4CCOCC4)C3)ccc2c1 (configuration not stated),inactive: -5.64%,
COC(=O)C1=C(c2ccc(F)cc2OCc2ccccc2)C[C@@H]2CC[C@H]1N2C(=O)NC1Cc2ccccc2C1,inactive: -21.6%,
C[C@]12CC[C@H](O)C[C@H]1CCC1C2CC[C@]2(C)[C@@H](c3ccc(=O)oc3)C[C@H]3O[C@]132 (some centres not stated),,"inconclusive: 1.3 µM [cytotoxic, full curve, poor fit]"
Cc1cccc(N2C(=O)NC(=O)/C(=C\c3cnc(-c4ccccc4)nc3)C2=O)c1,inactive: 19.5%,
CC(C)(C)N1C(=O)NC(=O)/C(=C\c2ccc3c(c2)CCN3CCCCl)C1=O,,"inconclusive: 11.6 µM [rising, partial curve, poor fit]"
CC(C)C(=O)c1cn(Cc2ccc(C#N)cc2)c2ccccc12,inactive: 0%,
COc1ccc(NC(=S)NC(NC(=O)CF)C(Cl)(Cl)Cl)c([N+](=O)[O-])c1 (configuration not stated),inactive: -13.4%,
CCCCCCn1c(N)c(C(=O)NCCN2CCOCC2)c2nc3ccccc3nc21,,"inconclusive: 6.51 µM [cytotoxic, full curve, poor fit]"
Cc1cc(=O)[nH]c(CCl)n1,inactive: 4.45%,
Cc1ncc([N+](=O)[O-])n1CCOc1nonc1N,inactive: 15.2%,
CCOC(=O)[C@]12Cc3cc(OC)ccc3[C@H]1N(Cc1ccccc1)C(=O)c1cc(F)c(F)cc12,,"inconclusive: 6.51 µM [cytotoxic, partial curve] and inconclusive: 29.1 µM [cytotoxic, single point]"
